Test results taken from paper doi:10.1101/2025.05.26.656073 (bioRxiv, 2025).
These are yes or no findings as the source states them, for the method shown. Some entries that bind do so weakly or less than the wild type. Each block holds one molecule with its values, some of them ahead of it.

How the values were obtained:
[1] = molecular target: OCP(R27L) mutant, dark-adapted state (Synechocystis sp. PCC 6803) (UniProt P74102); assay: SEC
[2] = molecular target: OCP(R27L) mutant, dark-adapted state (Synechocystis sp. PCC 6803) (UniProt P74102); assay: SAXS
[3] = molecular target: T1, Orange Carotenoid Protein, light-adapted state (OCP^R), wild type, canthaxanthin-binding holo form (Synechocystis sp. PCC 6803), P74102; assay: SEC; conditions: remark: other sources report otherwise
T1 chain: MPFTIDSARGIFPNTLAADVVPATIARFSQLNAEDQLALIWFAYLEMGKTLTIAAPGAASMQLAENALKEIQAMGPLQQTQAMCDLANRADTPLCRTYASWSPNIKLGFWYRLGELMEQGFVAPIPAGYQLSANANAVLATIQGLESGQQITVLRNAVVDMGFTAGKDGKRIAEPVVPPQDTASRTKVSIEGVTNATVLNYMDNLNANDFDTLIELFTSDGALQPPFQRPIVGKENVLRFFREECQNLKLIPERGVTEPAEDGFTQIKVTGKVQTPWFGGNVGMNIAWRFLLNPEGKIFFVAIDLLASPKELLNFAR

[4] = molecular target: T1, Orange Carotenoid Protein, …; assay: transient grating spectroscopy; conditions: remark: other sources report otherwise
[5] = molecular target: T1, Orange Carotenoid Protein, …; assay: transient grating spectroscopy; conditions: remark: other sources report otherwise

Molecule: OCP(R27L) mutant, dark-adapted state (from UniProt P74102 1-316)
binding [1]: no binding (tested: 200 µM)
binding [2]: no binding (tested: 100 µM)

binding [3]: binds
binding [4]: binds
binding [5]: binds
B1: Orange Carotenoid Protein, light-adapted state (OCP^R), wild type, canthaxanthin-binding holo form, P74102 1-317 (natural protein)
chain: T1 chain

binding [5]: binds
B2: apo-OCP (carotenoid-free Orange Carotenoid Protein), P74102 1-317 (natural protein)
chain: T1 chain
